These are yes or no findings as the source states them, for the method shown. Binding seen in cells or lysates may run through a third protein. A yes stands for co-enrichment or nearness to the bait. Other partners may have been found. A no says only that the protein was not detected with the bait.
Molecular target: albumin (human (endogenous in blood)) (UniProt P02768)
Assay: cross-linking + affinity purification with mass spectrometry; fresh human blood cross-linked 5 s in 10% formaldehyde, quenched with 4 M Tris; immunoprecipitation with anti-human serum albumin antibody and Protein A + G agarose, washed with PBS; 4-12% SDS-PAGE, six unstained slices above 70 kDa, LC-MS/MS; control: cross-linked sample without antibody

Protein sequences, listed by entry. Tags and fused reporters are not part of them. Lines headed by an entry give the natural chain unless they say otherwise; changes in a name come on top. Residues count along the entry.
UniProt P02760: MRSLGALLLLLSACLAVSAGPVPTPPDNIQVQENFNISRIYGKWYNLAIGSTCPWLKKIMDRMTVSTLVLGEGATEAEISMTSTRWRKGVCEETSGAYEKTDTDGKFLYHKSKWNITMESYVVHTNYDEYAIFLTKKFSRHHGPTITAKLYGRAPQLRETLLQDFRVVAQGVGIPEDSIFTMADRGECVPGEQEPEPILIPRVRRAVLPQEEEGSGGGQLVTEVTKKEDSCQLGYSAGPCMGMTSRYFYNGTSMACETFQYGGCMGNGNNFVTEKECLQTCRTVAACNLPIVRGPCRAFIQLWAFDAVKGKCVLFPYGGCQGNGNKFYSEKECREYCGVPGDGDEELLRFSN
UniProt P02679, residues 27-453: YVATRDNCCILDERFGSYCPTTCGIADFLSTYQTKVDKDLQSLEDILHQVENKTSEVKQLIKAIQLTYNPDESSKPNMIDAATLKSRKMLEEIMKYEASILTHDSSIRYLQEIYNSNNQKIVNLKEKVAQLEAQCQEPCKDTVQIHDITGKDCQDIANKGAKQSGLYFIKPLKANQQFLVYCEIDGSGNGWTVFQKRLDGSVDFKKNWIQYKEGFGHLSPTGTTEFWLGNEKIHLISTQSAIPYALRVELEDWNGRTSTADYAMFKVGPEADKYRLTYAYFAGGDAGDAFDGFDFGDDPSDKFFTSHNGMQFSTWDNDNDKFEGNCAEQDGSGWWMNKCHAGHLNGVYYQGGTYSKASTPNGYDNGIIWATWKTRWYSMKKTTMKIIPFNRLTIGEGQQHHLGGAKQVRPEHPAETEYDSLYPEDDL
UniProt Q01469: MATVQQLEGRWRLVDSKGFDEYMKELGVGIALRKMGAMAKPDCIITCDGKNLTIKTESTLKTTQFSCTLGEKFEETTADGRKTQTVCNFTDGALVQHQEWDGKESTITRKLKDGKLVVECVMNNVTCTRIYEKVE
UniProt P05090, residues 21-189: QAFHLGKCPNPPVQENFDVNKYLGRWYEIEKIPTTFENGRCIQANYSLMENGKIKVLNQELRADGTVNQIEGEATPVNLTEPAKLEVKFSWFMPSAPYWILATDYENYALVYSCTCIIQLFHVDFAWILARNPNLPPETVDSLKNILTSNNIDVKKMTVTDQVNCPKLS
UniProt P15924: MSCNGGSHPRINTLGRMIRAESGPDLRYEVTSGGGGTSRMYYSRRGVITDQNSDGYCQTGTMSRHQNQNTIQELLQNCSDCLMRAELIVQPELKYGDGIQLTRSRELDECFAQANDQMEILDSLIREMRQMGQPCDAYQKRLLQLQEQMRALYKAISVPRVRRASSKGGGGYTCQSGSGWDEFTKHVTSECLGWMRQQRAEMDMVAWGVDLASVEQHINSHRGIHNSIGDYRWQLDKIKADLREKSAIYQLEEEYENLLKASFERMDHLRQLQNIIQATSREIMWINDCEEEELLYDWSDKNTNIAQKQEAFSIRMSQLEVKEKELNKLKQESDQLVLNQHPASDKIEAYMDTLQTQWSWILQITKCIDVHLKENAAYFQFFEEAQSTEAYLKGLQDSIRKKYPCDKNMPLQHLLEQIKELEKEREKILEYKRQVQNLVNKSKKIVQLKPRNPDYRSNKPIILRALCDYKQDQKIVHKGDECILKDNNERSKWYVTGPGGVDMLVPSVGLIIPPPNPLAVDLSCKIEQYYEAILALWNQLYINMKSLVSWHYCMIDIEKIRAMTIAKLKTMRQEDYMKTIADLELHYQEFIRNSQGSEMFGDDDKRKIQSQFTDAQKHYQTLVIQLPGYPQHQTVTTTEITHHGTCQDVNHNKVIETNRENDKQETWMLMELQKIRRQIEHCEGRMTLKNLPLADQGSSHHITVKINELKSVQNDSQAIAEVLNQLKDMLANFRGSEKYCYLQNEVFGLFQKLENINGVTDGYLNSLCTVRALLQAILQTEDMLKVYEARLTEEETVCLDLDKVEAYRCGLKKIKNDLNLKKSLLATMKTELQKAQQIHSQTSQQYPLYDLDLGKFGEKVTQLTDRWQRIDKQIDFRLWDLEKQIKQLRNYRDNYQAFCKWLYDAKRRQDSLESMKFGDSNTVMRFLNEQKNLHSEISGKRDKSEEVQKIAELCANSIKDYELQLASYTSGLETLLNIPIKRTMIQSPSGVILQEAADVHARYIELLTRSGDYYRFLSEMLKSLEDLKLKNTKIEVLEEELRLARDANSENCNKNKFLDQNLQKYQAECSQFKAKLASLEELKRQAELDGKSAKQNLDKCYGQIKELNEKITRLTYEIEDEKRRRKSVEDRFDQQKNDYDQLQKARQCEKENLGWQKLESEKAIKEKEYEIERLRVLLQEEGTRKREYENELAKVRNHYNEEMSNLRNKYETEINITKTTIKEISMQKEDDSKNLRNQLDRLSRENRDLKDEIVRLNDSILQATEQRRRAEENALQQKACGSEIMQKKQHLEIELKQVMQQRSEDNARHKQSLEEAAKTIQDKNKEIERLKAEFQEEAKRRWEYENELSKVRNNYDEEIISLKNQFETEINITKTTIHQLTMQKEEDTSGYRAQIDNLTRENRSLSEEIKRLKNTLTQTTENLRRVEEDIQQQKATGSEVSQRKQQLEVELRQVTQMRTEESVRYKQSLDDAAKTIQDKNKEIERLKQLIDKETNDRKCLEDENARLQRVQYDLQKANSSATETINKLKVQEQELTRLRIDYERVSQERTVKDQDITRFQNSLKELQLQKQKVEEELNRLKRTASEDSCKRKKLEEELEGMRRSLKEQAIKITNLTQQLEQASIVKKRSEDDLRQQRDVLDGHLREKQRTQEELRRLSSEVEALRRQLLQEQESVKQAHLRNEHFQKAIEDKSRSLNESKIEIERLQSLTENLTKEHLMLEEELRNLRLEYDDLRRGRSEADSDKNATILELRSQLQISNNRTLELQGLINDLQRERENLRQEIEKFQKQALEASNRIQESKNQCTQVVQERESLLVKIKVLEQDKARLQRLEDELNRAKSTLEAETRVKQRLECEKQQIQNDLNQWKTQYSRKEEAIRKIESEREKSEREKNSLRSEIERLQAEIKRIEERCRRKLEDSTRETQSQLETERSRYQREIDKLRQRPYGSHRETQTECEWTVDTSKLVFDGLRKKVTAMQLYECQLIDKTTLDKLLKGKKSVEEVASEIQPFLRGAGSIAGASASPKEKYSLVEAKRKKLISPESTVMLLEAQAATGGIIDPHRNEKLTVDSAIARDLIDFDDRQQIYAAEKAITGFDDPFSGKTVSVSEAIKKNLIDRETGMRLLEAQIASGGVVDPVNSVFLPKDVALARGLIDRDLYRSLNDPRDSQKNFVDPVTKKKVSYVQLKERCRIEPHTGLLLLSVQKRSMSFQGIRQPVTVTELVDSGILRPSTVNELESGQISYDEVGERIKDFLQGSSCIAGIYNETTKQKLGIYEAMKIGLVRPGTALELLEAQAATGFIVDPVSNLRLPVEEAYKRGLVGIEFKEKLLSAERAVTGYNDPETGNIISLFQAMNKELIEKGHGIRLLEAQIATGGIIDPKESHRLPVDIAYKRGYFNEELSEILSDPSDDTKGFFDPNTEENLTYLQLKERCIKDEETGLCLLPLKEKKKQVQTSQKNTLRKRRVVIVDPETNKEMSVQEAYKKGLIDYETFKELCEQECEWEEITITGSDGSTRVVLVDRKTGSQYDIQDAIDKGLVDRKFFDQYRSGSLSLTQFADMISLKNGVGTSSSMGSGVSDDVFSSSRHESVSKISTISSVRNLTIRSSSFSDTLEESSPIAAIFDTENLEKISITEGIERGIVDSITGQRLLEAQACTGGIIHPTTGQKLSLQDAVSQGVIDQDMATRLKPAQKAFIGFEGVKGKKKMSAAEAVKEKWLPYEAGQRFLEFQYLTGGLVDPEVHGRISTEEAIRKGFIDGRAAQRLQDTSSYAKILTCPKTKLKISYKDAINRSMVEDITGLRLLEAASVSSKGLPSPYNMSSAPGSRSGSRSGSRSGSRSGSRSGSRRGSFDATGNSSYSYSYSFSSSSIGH
UniProt P02787, residues 20-698: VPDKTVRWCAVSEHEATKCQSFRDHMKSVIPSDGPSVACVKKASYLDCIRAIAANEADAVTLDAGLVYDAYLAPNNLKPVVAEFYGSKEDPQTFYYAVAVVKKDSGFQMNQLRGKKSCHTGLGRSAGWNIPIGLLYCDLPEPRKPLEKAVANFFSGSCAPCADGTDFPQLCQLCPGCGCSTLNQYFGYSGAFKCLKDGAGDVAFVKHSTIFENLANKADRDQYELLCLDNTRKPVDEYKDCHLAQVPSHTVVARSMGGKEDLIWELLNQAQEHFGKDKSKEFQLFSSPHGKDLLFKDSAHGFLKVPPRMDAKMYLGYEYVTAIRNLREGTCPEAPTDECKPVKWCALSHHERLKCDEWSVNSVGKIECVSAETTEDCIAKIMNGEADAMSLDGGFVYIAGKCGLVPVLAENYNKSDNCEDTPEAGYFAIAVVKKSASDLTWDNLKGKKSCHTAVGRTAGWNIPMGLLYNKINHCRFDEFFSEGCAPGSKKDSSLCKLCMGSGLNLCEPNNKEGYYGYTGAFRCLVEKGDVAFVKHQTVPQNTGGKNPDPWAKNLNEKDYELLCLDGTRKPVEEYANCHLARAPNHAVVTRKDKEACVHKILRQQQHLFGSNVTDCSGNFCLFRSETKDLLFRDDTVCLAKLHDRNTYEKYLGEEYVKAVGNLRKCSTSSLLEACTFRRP
UniProt P01024, residues 23-1663: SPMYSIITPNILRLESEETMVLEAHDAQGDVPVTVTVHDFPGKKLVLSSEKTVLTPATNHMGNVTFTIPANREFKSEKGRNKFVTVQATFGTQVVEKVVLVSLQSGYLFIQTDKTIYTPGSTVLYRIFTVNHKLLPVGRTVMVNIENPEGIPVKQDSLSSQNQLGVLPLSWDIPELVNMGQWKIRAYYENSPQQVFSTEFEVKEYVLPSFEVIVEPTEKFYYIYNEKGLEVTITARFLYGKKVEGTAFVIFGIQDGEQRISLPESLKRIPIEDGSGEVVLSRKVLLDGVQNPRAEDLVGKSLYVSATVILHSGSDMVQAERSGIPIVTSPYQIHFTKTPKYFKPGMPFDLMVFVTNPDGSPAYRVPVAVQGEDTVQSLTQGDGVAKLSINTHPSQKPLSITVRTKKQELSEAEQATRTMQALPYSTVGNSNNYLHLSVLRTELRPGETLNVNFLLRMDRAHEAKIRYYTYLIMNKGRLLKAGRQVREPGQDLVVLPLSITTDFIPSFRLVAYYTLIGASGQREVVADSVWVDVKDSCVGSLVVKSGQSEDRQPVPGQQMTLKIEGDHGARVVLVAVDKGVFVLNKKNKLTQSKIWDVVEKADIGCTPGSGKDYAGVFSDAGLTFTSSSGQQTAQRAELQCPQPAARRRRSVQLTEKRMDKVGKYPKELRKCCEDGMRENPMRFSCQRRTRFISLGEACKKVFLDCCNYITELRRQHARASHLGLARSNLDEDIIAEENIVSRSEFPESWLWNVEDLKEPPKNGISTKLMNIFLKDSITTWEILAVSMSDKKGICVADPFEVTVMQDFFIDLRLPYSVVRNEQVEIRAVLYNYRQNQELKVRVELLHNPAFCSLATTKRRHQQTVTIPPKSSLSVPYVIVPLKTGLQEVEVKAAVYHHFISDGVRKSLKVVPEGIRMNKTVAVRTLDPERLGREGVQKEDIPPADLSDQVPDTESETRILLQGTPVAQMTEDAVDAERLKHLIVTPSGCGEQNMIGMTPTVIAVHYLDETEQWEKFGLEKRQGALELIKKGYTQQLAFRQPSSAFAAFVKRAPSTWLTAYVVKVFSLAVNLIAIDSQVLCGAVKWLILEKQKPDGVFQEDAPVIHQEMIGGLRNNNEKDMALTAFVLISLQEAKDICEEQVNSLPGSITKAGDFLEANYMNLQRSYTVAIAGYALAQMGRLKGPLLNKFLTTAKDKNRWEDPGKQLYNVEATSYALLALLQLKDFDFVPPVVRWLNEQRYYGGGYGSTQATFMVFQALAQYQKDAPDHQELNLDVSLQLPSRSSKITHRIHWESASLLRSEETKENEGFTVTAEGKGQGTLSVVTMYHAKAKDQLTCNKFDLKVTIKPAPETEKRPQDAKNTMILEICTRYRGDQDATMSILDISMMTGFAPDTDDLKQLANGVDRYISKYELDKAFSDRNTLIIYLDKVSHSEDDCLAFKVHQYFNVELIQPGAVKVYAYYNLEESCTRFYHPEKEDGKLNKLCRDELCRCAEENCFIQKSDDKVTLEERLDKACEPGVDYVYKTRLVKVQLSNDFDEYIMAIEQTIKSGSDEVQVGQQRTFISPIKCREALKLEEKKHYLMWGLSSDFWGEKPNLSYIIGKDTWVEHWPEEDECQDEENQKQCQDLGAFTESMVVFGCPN
UniProt P25311, residues 21-298: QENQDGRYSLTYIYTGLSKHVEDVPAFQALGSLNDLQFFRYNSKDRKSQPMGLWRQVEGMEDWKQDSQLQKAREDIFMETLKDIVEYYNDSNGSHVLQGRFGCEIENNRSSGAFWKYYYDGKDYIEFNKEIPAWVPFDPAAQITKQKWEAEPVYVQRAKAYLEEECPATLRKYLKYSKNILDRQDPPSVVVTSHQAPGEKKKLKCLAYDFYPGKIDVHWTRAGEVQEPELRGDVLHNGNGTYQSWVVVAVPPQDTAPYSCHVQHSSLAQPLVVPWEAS

Substance | binding
AMBP, alpha-1-microglobulin/bikunin precursor (from UniProt P02760) | binds
FIBG_HUMAN (from UniProt P02679 27-453) | binds
LEG7_HUMAN (from UniProt P47929 1-136) | binds
FABP5_HUMAN (from UniProt Q01469 1-135) | binds
APOD_HUMAN (from UniProt P05090 21-189) | binds
DESP_HUMAN (from UniProt P15924 1-2871) | binds

More lines, now with the values ahead:

binding | Substance
no binding | transferrin (from UniProt P02787 20-698)
binds | B3AT_HUMAN (from UniProt P02730 1-911)
binds | complement C3 (from UniProt P01024 23-1663)
binds | IGLL5_HUMAN (from UniProt B9A064 36-214)
binds | ZA2G_HUMAN (from UniProt P25311 21-298)

Reference: article PMC3922604
